# According to the supplement of paper PMC12542422:
# Structures can show the parent of a compound that is named as a salt. ± gives the standard deviation of the averaged measurements. The list shows a part of the results. Values are raw readings; no control value is given beside them.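 HeLa cells imaged for ribosome-assembly readouts (ENP1 staining with or without export block, or inducible tagged ribosomal protein reporters); machine learning classified each cell's signal location against solvent (DMSO) controls. Hits exceeded the DMSO false-positive mean by five standard deviations, then were visually confirmed; three biological replicates.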
# What was measured:
# [1] = tested on: HeLa K (ENP1 immunofluorescence, +LMB); assay: fraction of cells with nucleolar or nucleolar/nucleoplasmic ENP1 signal (MainHitrate); higher = more cells with nucleolar/nuclear readout signal (for ENP1 -LMB: less RNAPI inhibition; for +LMB ENP1 and RP reporters: stronger nuclear/nucleolar retention, i.e. ribosome biogenesis defect); details: concentration: 1 µM; treatment time: 6 h; ENP1 +LMB; leptomycin B: 20 nM, last 1.5 h
# [2] = tested on: HeLa K (ENP1 immunofluorescence, no LMB); assay: as above; details: concentration: 1 µM; treatment time: 6 h; ENP1 -LMB; leptomycin B: none
# HeLa RPS2-YFP reporter = assay: fraction of reporter-positive cells with nuclear (nucleolar or nucleolar/nucleoplasmic) RPS2-YFP (MainHitrate); higher = more cells with nucleolar/nuclear readout signal (for ENP1 -LMB: less RNAPI inhibition; for +LMB ENP1 and RP reporters: stronger nuclear/nucleolar retention, i.e. ribosome biogenesis defect); details: concentration: 1 µM; treatment time: 6 h
# HeLa RPL29-GFP reporter = assay: fraction of reporter-positive cells with nuclear (nucleolar or nucleolar/nucleoplasmic) RPL29-GFP (MainHitrate); higher = more cells with nucleolar/nuclear readout signal (for ENP1 -LMB: less RNAPI inhibition; for +LMB ENP1 and RP reporters: stronger nuclear/nucleolar retention, i.e. ribosome biogenesis defect); details: concentration: 1 µM; treatment time: 6 h
structure (smiles),measurement,setting,value
CCOC(=O)C1=C(C)NC(C)=C(C(=O)OC)C1c1cccc([N+](=O)[O-])c1 (configuration not stated) [Nitrendipine],fraction,[1],0.106 ± 0.11
same,fraction,[2],0.987 ± 0.023
same,fraction of reporter-positive cells with nuclear,HeLa RPS2-YFP reporter,0.152 ± 0.037
same,fraction of reporter-positive cells with nuclear,HeLa RPL29-GFP reporter,0.269 ± 0.1
CCCc1ncc(C[n+]2ccccc2C)c(N)n1 [Amprolium HCl],fraction,[1],0.0805 ± 0.12
same,fraction,[2],0.988 ± 0.02
same,fraction of reporter-positive cells with nuclear,HeLa RPS2-YFP reporter,0.121 ± 0.1
same,fraction of reporter-positive cells with nuclear,HeLa RPL29-GFP reporter,0.216 ± 0.069
CC(=O)[C@H]1CC[C@H]2[C@@H]3CCC4=CC(=O)CC[C@]4(C)[C@H]3CC[C@]12C [Progesterone (Prometrium)],fraction,[1],0.0986 ± 0.078
same,fraction,[2],0.9967 ± 0.0058
same,fraction of reporter-positive cells with nuclear,HeLa RPS2-YFP reporter,0.135 ± 0.067
same,fraction of reporter-positive cells with nuclear,HeLa RPL29-GFP reporter,0.214 ± 0.054
Cc1ccc(Nc2nccc(N(C)c3ccc4c(C)n(C)nc4c3)n2)cc1S(N)(=O)=O [Pazopanib HCl],fraction,[1],0.0503 ± 0.012
same,fraction,[2],0.9984 ± 0.0027
same,fraction of reporter-positive cells with nuclear,HeLa RPS2-YFP reporter,0.097 ± 0.088
same,fraction of reporter-positive cells with nuclear,HeLa RPL29-GFP reporter,0.23 ± 0.031
C#C[C@]1(O)CC[C@H]2[C@@H]3CCC4=CC(=O)CC[C@@H]4[C@H]3CC[C@@]21CC [Levonorgestrel (Levonelle)],fraction,[1],0.0918 ± 0.089
same,fraction,[2],0.999 ± 0.0018
same,fraction of reporter-positive cells with nuclear,HeLa RPS2-YFP reporter,0.143 ± 0.083
same,fraction of reporter-positive cells with nuclear,HeLa RPL29-GFP reporter,0.211 ± 0.06
Cc1ncc([N+](=O)[O-])n1CC(C)O (configuration not stated) [Secnidazole (Flagentyl)],fraction,[1],0.159 ± 0.25
same,fraction,[2],0.986 ± 0.024
same,fraction of reporter-positive cells with nuclear,HeLa RPS2-YFP reporter,0.109 ± 0.058
same,fraction of reporter-positive cells with nuclear,HeLa RPL29-GFP reporter,0.219 ± 0.081
Cc1cc(=O)n(-c2ccccc2)n1C [Antipyrine],fraction,[1],0.0782 ± 0.095
same,fraction,[2],0.983 ± 0.029
same,fraction of reporter-positive cells with nuclear,HeLa RPS2-YFP reporter,0.115 ± 0.097
same,fraction of reporter-positive cells with nuclear,HeLa RPL29-GFP reporter,0.214 ± 0.086
CC(C)Cc1ccc(C(C)C(=O)O)cc1 (configuration not stated) [Ibuprofen Lysine (NeoProfen)],fraction,[1],0.0775 ± 0.054
same,fraction,[2],0.9972 ± 0.0048
same,fraction of reporter-positive cells with nuclear,HeLa RPS2-YFP reporter,0.124 ± 0.08
same,fraction of reporter-positive cells with nuclear,HeLa RPL29-GFP reporter,0.23 ± 0.068
NC(=O)N1c2ccccc2CC(=O)c2ccccc21 [Oxcarbazepine],fraction,[1],0.127 ± 0.12
same,fraction,[2],0.9987 ± 0.0022
same,fraction of reporter-positive cells with nuclear,HeLa RPS2-YFP reporter,0.129 ± 0.07
same,fraction of reporter-positive cells with nuclear,HeLa RPL29-GFP reporter,0.196 ± 0.053
CCN1CCN(C(=O)N[C@@H](C(=O)N[C@@H]2C(=O)N3[C@@H]2SC(C)(C)[C@@H]3C(=O)O)c2ccccc2)C(=O)C1=O [Piperacillin Sodium],fraction,[1],0.101 ± 0.15
same,fraction,[2],0.985 ± 0.025
same,fraction of reporter-positive cells with nuclear,HeLa RPS2-YFP reporter,0.113 ± 0.1
same,fraction of reporter-positive cells with nuclear,HeLa RPL29-GFP reporter,0.199 ± 0.068
N[C@H](Cc1ccccc1)C(=O)O [D-Phenylalanine],fraction,[1],0.088 ± 0.13
same,fraction,[2],0.9982 ± 0.0032
same,fraction of reporter-positive cells with nuclear,HeLa RPS2-YFP reporter,0.133 ± 0.084
same,fraction of reporter-positive cells with nuclear,HeLa RPL29-GFP reporter,0.246 ± 0.059
CCCCN1CCCCC1C(=O)Nc1c(C)cccc1C (configuration not stated) [Bupivacaine hydrochloride (Marcain)],fraction,[1],0.223 ± 0.35
same,fraction,[2],0.9953 ± 0.0081
same,fraction of reporter-positive cells with nuclear,HeLa RPS2-YFP reporter,0.111 ± 0.058
same,fraction of reporter-positive cells with nuclear,HeLa RPL29-GFP reporter,0.227 ± 0.09
CCn1cc(C(=O)O)c(=O)c2cc(F)c(N3CCNCC3)nc21 [Enoxacin (Penetrex)],fraction,[1],0.122 ± 0.15
same,fraction,[2],0.9986 ± 0.0024
same,fraction of reporter-positive cells with nuclear,HeLa RPS2-YFP reporter,0.136 ± 0.11
same,fraction of reporter-positive cells with nuclear,HeLa RPL29-GFP reporter,0.204 ± 0.078
CNCC[C@@H](Oc1ccccc1C)c1ccccc1 [Atomoxetine HCl],fraction,[1],0.115 ± 0.17
same,fraction,[2],0.994 ± 0.01
same,fraction of reporter-positive cells with nuclear,HeLa RPS2-YFP reporter,0.15 ± 0.058
same,fraction of reporter-positive cells with nuclear,HeLa RPL29-GFP reporter,0.205 ± 0.087
Nc1ccc(S(=O)(=O)Nc2ccccn2)cc1 [Sulfapyridine (Dagenan)],fraction,[1],0.103 ± 0.098
same,fraction,[2],0.9972 ± 0.0049
same,fraction of reporter-positive cells with nuclear,HeLa RPS2-YFP reporter,0.0877 ± 0.056
same,fraction of reporter-positive cells with nuclear,HeLa RPL29-GFP reporter,0.223 ± 0.052
N=C(N)N [Guanidine HCl],fraction,[1],0.123 ± 0.17
same,fraction,[2],0.981 ± 0.034
same,fraction of reporter-positive cells with nuclear,HeLa RPS2-YFP reporter,0.128 ± 0.11
same,fraction of reporter-positive cells with nuclear,HeLa RPL29-GFP reporter,0.239 ± 0.067
Clc1ccc(C(Cn2ccnc2)OCc2csc3c(Cl)cccc23)c(Cl)c1 (configuration not stated) [Sertaconazole nitrate],fraction,[1],0.0685 ± 0.093
same,fraction,[2],0.987 ± 0.023
same,fraction of reporter-positive cells with nuclear,HeLa RPS2-YFP reporter,0.13 ± 0.071
same,fraction of reporter-positive cells with nuclear,HeLa RPL29-GFP reporter,0.206 ± 0.055
C=CCNC(N)=S [Allylthiourea],fraction,[1],0.0735 ± 0.086
same,fraction,[2],0.984 ± 0.028
same,fraction of reporter-positive cells with nuclear,HeLa RPS2-YFP reporter,0.131 ± 0.11
same,fraction of reporter-positive cells with nuclear,HeLa RPL29-GFP reporter,0.193 ± 0.059
C=C[C@]1(C)C[C@@H](OC(=O)CSC(C)(C)CNC(=O)[C@H](N)C(C)C)[C@]2(C)[C@H](C)CC[C@]3(CCC(=O)[C@H]32)[C@@H](C)[C@@H]1O [Valnemulin HCl],fraction,[1],0.0647 ± 0.088
same,fraction,[2],0.986 ± 0.024
same,fraction of reporter-positive cells with nuclear,HeLa RPS2-YFP reporter,0.124 ± 0.085
same,fraction of reporter-positive cells with nuclear,HeLa RPL29-GFP reporter,0.194 ± 0.046
CNC(=O)c1cc(Oc2ccc(NC(=O)Nc3ccc(Cl)c(C(F)(F)F)c3)c(F)c2)ccn1 [Regorafenib (BAY 73-4506)],fraction,[1],0.0733 ± 0.039
same,fraction,[2],0.9983 ± 0.003
same,fraction of reporter-positive cells with nuclear,HeLa RPS2-YFP reporter,0.0939 ± 0.093
same,fraction of reporter-positive cells with nuclear,HeLa RPL29-GFP reporter,0.238 ± 0.083
CN(C)/N=N/c1[nH]cnc1C(N)=O [Dacarbazine (DTIC-Dome)],fraction,[1],0.092 ± 0.062
same,fraction,[2],0.9983 ± 0.0029
same,fraction of reporter-positive cells with nuclear,HeLa RPS2-YFP reporter,0.093 ± 0.065
same,fraction of reporter-positive cells with nuclear,HeLa RPL29-GFP reporter,0.219 ± 0.063
CN(C)CCCN1c2ccccc2CCc2ccc(Cl)cc21 [Clomipramine hydrochloride (Anafranil)],fraction,[1],0.149 ± 0.22
same,fraction,[2],0.992 ± 0.014
same,fraction of reporter-positive cells with nuclear,HeLa RPS2-YFP reporter,0.132 ± 0.13
same,fraction of reporter-positive cells with nuclear,HeLa RPL29-GFP reporter,0.225 ± 0.058
COC1=C(OC)C(=O)C(CCCCCCCCCCO)=C(C)C1=O [Idebenone],fraction,[1],0.109 ± 0.15
same,fraction,[2],0.98 ± 0.034
same,fraction of reporter-positive cells with nuclear,HeLa RPS2-YFP reporter,0.0908 ± 0.073
same,fraction of reporter-positive cells with nuclear,HeLa RPL29-GFP reporter,0.203 ± 0.09
COc1ccccc1OCC(O)COC(N)=O (configuration not stated) [Methocarbamol (Robaxin)],fraction,[1],0.0672 ± 0.074
same,fraction,[2],0.9986 ± 0.0025
same,fraction of reporter-positive cells with nuclear,HeLa RPS2-YFP reporter,0.121 ± 0.091
same,fraction of reporter-positive cells with nuclear,HeLa RPL29-GFP reporter,0.239 ± 0.071
CCC[S+]([O-])c1ccc2[nH]c(NC(=O)OC)nc2c1 (configuration not stated) [Albendazole Oxide (Ricobendazole)],fraction,[1],0.0657 ± 0.074
same,fraction,[2],0.991 ± 0.015
same,fraction of reporter-positive cells with nuclear,HeLa RPS2-YFP reporter,0.122 ± 0.062
same,fraction of reporter-positive cells with nuclear,HeLa RPL29-GFP reporter,0.245 ± 0.071
Cc1onc(-c2ccccc2)c1C(=O)N[C@@H]1C(=O)N2[C@@H]1SC(C)(C)[C@@H]2C(=O)O [Oxacillin sodium monohydrate],fraction,[1],0.121 ± 0.17
same,fraction,[2],0.993 ± 0.012
same,fraction of reporter-positive cells with nuclear,HeLa RPS2-YFP reporter,0.132 ± 0.077
same,fraction of reporter-positive cells with nuclear,HeLa RPL29-GFP reporter,0.216 ± 0.099
C#CCN(C)CCCOc1ccc(Cl)cc1Cl [Clorgyline HCl],fraction,[1],0.16 ± 0.14
same,fraction,[2],0.994 ± 0.011
same,fraction of reporter-positive cells with nuclear,HeLa RPS2-YFP reporter,0.164 ± 0.15
same,fraction of reporter-positive cells with nuclear,HeLa RPL29-GFP reporter,0.286 ± 0.16
CC(=O)O[C@]1(C(C)=O)CC[C@H]2[C@@H]3C[C@H](C)C4=CC(=O)C=C[C@]4(C)[C@@]3(F)[C@@H](O)C[C@@]21C [Fluorometholone Acetate],fraction,[1],0.0888 ± 0.13
same,fraction,[2],0.992 ± 0.014
same,fraction of reporter-positive cells with nuclear,HeLa RPS2-YFP reporter,0.156 ± 0.15
same,fraction of reporter-positive cells with nuclear,HeLa RPL29-GFP reporter,0.238 ± 0.093

# Laid out differently: results already given.
structure (smiles)	measurement	setting	value
CCCc1ncc(C[n+]2ccccc2C)c(N)n1 [Amprolium HCl]	fraction	[1]	0.0805 ± 0.12
same	fraction	[2]	0.988 ± 0.02
same	fraction of reporter-positive cells with nuclear	HeLa RPS2-YFP reporter	0.121 ± 0.1
same	fraction of reporter-positive cells with nuclear	HeLa RPL29-GFP reporter	0.216 ± 0.069
CC(=O)[C@H]1CC[C@H]2[C@@H]3CCC4=CC(=O)CC[C@]4(C)[C@H]3CC[C@]12C [Progesterone (Prometrium)]	fraction	[1]	0.0986 ± 0.078
same	fraction	[2]	0.9967 ± 0.0058
same	fraction of reporter-positive cells with nuclear	HeLa RPS2-YFP reporter	0.135 ± 0.067
same	fraction of reporter-positive cells with nuclear	HeLa RPL29-GFP reporter	0.214 ± 0.054
Cc1ccc(Nc2nccc(N(C)c3ccc4c(C)n(C)nc4c3)n2)cc1S(N)(=O)=O [Pazopanib HCl]	fraction	[1]	0.0503 ± 0.012
same	fraction	[2]	0.9984 ± 0.0027
same	fraction of reporter-positive cells with nuclear	HeLa RPS2-YFP reporter	0.097 ± 0.088
same	fraction of reporter-positive cells with nuclear	HeLa RPL29-GFP reporter	0.23 ± 0.031
C#C[C@]1(O)CC[C@H]2[C@@H]3CCC4=CC(=O)CC[C@@H]4[C@H]3CC[C@@]21CC [Levonorgestrel (Levonelle)]	fraction	[1]	0.0918 ± 0.089
same	fraction	[2]	0.999 ± 0.0018
same	fraction of reporter-positive cells with nuclear	HeLa RPS2-YFP reporter	0.143 ± 0.083
same	fraction of reporter-positive cells with nuclear	HeLa RPL29-GFP reporter	0.211 ± 0.06
Cc1ncc([N+](=O)[O-])n1CC(C)O (configuration not stated) [Secnidazole (Flagentyl)]	fraction	[1]	0.159 ± 0.25
same	fraction	[2]	0.986 ± 0.024
same	fraction of reporter-positive cells with nuclear	HeLa RPS2-YFP reporter	0.109 ± 0.058
same	fraction of reporter-positive cells with nuclear	HeLa RPL29-GFP reporter	0.219 ± 0.081
Cc1cc(=O)n(-c2ccccc2)n1C [Antipyrine]	fraction	[1]	0.0782 ± 0.095
same	fraction	[2]	0.983 ± 0.029
same	fraction of reporter-positive cells with nuclear	HeLa RPS2-YFP reporter	0.115 ± 0.097
